US20190276542A1 (QILU PUGET SOUND BIOTHERAPEUTICS, published 2019)
Numbering of substitutions follows the chain as printed. Results are given in words; binding and its absence hold for the method and conditions named. Some binding calls cover weakened binding; strength is not graded here.

By UniProt entry, the sequences of proteins in these tests, tags left out. Where a name states a change or a piece, a line headed by the entry shows the natural chain unless it says otherwise. Residues count along the entry.
UniProt Q15116: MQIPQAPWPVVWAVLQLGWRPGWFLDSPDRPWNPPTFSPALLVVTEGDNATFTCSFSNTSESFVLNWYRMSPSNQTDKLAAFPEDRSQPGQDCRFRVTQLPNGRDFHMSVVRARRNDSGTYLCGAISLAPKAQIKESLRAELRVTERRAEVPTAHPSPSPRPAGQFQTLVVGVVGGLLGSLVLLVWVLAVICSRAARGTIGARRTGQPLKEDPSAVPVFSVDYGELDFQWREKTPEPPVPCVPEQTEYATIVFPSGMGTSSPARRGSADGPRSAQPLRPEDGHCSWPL
soluble, biotinylated PD1 protein containing only the extracellular region: residues 25-170 of Q15116

B1: anti-hPD1 antibody #1 (antibody, V domains shown)
VH: QVQLVQSGAEVKKPGASVKVSCKASGYTFTNYWIHWVRQAPGQGLEWMGEIDPYDSYTNYNQKFKGRVTMTVDKSTSTVYMELSSLRSEDTAVYYCARPGFTYGGMDFWGQGTLVTVSS
VL: DIQMTQSPSSLSASVGDRVTITCKSSQSLFNSGNQKNYLAWYQQKPGKVPKLLIYGASTRDSGVPYRFSGSGSGTDFTLTISSLQPEDVATYYCQNDHYYPYTFGGGTKVEIKR
notes: also called Anti-hPD1 #1; Anti-PD1 #1
B2: anti-hPD1 antibody #7 (antibody, human IgG4, V domains shown)
VH: B1 VH with V72I, S77N, F101L
VL: DIVMTQSPDSLAVSLGERATINCRSSQSLFISGNQKNYLAWYQQKPGQPPKLLIYGASTRESGVPDRFSGSGSGTDFTLTISSLQAEDVAVYYCQNNHYYPYTFGGGTKVEIK
notes: also called Anti-hPD1 #7; Anti-PD1 #7

Tests used:
[1] = molecular target: human PD1 expressed on a cell surface (human, UniProt Q15116 25-288); assay: flow cytometry on OKT3-activated human T cells
[2] = molecular target: soluble, biotinylated PD1 protein containing only the extracellular region (human) (UniProt Q15116); assay: … competition: antibody pre-incubated with soluble biotinylated PD1, then GST-tagged hPDL1 added; blocked ligand hPDL1
[3] = molecular target: extracellular domain of a recombinant cynomolgus (rcyno) PD1 (cynomolgus monkey) (UniProt B0LAJ3); assay: SPR (Biacore 3000)

Binder | binding [1] | binding [2] | binding [3]
B1 | binds | binds | 
B2 |  |  | binds
